# Percent effect of library compounds

Chains of the proteins cited; added tags and fusions are not shown.
UniProt I6X8D2, whole entry: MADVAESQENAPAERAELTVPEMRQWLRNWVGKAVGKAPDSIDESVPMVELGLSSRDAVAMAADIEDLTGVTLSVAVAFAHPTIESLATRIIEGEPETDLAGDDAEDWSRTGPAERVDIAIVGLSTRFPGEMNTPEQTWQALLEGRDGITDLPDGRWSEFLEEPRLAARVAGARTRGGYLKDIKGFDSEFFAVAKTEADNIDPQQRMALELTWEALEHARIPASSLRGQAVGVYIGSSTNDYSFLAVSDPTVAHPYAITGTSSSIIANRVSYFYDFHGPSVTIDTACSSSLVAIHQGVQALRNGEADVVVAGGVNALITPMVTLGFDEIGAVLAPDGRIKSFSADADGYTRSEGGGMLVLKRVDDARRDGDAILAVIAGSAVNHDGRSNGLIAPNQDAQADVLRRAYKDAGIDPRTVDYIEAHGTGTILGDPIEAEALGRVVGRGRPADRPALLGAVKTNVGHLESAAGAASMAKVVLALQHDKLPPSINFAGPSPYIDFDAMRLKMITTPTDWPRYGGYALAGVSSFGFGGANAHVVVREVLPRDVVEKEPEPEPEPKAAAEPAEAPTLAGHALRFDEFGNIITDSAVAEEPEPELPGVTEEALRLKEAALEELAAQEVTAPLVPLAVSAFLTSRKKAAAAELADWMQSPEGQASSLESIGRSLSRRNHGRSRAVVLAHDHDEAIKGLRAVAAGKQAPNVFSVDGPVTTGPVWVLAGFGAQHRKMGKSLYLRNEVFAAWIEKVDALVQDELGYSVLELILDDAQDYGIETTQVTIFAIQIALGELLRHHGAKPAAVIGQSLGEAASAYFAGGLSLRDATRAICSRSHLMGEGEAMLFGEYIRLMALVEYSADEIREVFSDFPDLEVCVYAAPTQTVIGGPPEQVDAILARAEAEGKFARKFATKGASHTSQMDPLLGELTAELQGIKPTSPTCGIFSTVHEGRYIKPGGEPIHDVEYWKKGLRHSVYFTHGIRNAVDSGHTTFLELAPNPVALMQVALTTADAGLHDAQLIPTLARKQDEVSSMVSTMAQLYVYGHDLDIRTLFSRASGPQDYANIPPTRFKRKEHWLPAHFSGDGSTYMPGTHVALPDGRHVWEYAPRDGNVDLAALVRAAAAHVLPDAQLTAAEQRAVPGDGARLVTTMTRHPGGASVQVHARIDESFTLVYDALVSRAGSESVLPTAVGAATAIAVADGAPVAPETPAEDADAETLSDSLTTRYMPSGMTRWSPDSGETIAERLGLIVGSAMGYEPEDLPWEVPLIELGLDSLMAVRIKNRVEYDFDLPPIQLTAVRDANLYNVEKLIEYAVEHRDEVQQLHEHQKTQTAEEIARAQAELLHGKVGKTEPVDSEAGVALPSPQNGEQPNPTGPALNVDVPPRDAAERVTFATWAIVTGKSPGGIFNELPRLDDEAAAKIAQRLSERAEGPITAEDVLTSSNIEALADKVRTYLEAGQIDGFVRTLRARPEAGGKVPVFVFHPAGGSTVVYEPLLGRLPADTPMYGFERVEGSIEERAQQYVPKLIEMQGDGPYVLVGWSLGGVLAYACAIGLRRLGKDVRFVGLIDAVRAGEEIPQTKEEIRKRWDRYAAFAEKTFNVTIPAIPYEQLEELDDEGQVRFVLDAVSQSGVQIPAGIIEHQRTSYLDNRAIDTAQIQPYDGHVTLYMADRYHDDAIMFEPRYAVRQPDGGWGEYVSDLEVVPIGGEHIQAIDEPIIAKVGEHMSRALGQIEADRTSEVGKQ
UniProt P9WPC5, whole entry: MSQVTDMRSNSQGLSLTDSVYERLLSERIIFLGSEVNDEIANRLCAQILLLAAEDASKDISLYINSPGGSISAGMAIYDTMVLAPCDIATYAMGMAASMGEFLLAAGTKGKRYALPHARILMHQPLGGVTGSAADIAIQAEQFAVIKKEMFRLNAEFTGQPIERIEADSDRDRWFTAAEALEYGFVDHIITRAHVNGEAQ
UniProt P9WPC3, whole entry partner: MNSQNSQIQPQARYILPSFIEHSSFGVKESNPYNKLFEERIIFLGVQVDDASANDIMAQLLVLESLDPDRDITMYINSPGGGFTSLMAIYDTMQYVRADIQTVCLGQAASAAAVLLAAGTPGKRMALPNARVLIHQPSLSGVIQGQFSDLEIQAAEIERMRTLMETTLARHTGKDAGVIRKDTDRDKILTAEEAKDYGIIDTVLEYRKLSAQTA

A: 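Cell assay of Leishmania donovani living inside macrophages; the read-out is not stated. Compounds at 30 µM. Direction is inferred from retests: higher values go with stronger inhibition. Of about 69,000 compounds tested this way, about 1,000 (1.5%) reached 50% or more in at least one test.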
B: 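Enzyme assay of the thioesterase domain of polyketide synthase 13; the read-out is not stated. Target: Polyketide synthase Pks13, Mycobacterium tuberculosis (UniProt I6X8D2). Tested at 30 µM. The record gives no direction; the compounds picked for IC50 retests had high values, so higher reads as stronger inhibition. About 67,000 compounds were tested under these conditions; 0.46% (about 300) showed 50% or more at least once.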
C: 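ClpP1P2, Mycobacterium tuberculosis (UniProt P9WPC5 and UniProt P9WPC3). Protease assay of ClpP1P2, read by the AMC dye that it sets free. Tested at 50 µM. Higher reads as stronger inhibition, judged from the few compounds that gave an IC50. Most other retested compounds had strongly negative values. About 69,000 compounds were tested under these conditions; 0.015% (about 10) showed 50% or more at least once.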
D: 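Whole-parasite assay of Trypanosoma brucei over 72 hours; the read-out is not stated. Concentration: 30 µM. Higher reads as stronger inhibition (inferred: compounds with an IC50 in retests scored well above the rest). Values scatter widely below zero; nearly all retest evidence comes from the higher of the two concentrations used. About 64,000 compounds were tested under these conditions; 1.5% (about 940) showed 50% or more at least once.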

Results are given as percent effect. How 0% and 100% were set is not recorded. Most values in the screen are low, and negative values occur. The compounds are a random part of those screened. Two or more numbers in one place are separate tests of the same structure; such repeats can differ widely. A dash means the value is not listed here; it may have been measured.

compound | A | B | C | D
COCCN1CCC2(CC1)C(=O)Nc1ccc(C(=O)NC(C)C)cc12 | - | -12.63 | -8.579 | -
Cc1ccc(C)c2c(O)cc(CN3CCC(=O)NCC3C)nc12 (stereo not given) | 4.538 | -2.659 | -5.643 | -6.203
Cc1nc(C)n(CC2CCCN2CCOc2ccccc2C#N)n1 (stereo not given) | 24.52 | -6.472 | -14.81 | -
Cc1cc(C2CCCN(C(=O)c3cccnc3)C2)ccn1 (stereo not given) | 10.97 | -2.411 | 8.461 | 3.255
CC(C)c1noc(CNc2ccccc2CC(=O)N(C)C)n1 | 12.04 | -30.15 | 4.968 | -17.4
CCn1ccnc1CN1CCN(CC(O)Cn2cccn2)CC1 (stereo not given) | 22.59 | -5.955 | 5.113 | -17.21
Fc1ccccc1Sc1ccccc1CNC1=NCCN1 | - | -19.8 | 9.121 | -
CCCOC(C)C(=O)N1CCC(O)(c2ccc3nc(C)ccc3c2)CC1 (stereo not given) | 23.52 | -27.94 | 0.4408 | -18.48
Cc1ccc(CN2CCCC3(CCN(S(C)(=O)=O)C3)C2)o1 (stereo not given) | - | -22.16 | 8.079 | -
CCOCc1nnc2n1CCN(Cc1c(C)noc1C)CC2 | - | -46.38 | -0.1158 | -
COc1ccccc1CN1C[C@@H](F)[C@@H](OCc2nc3cnccc3[nH]2)C1 | 9.486 | -26.63 | -3.966 | -4.499
Cc1cc(C)n(CCCC(=O)N2CC[C@H]3NCCC[C@]3(CO)C2)n1 | - | -0.4997 | -5.503 | -
N#Cc1ccc(CNCCS(=O)(=O)N2CCc3ccccc32)cc1 | 27.07 | 6.903 | -0.392 | 4.922
[H][C@]12CC[C@]([H])(CN(C(=O)c3ccccn3)C1)N(C(=O)Cc1cccs1)C2 | -16.24 | - | - | -27.6
COc1cccc2c3c(c(=O)[nH]c12)CCO3 | 15.3 | -6.68 | 27.35 | -17.65
COc1cc(C2CC(=O)Nc3c2nc2n3CCCC2)cc2c1OCO2 (stereo not given) | 17.58 | -4.874 | -19.76 | -16.31
Cc1cccc(I)c1C(=O)NCc1ncc[nH]1 | 10.93 | -32.36 | -10.48 | 0.918
CCC(C)[C@H](NC(=O)c1cc(F)ccc1-n1cnnn1)C(=O)OC (stereo not given in full) | 26.81 | -2.572 | -13.51 | -11.55
O=C(NCCn1cnc(C2CCCC2)cc1=O)c1ccc(=O)[nH]n1 | 0.6412 & 9.733 | -16.25 | -9.105 | 7.342
O[C@@H]1C[C@H]2CN(Cc3ccsc3)[C@@H](Cc3ccccc3)CN2C1 | - | 3.456 | -31.5 | -
O=C(c1ccoc1)N1CCCC2(CCC(=O)N2Cc2ccncc2)C1 (stereo not given) | - | -33.11 | 2.55 | -
[H][C@@]12CCN(C(=O)CCc3ccccc3Cl)C[C@]1([H])OCCNC2=O | 11.44 | - | - | -56.31
CCOc1ccc(NC(C)=O)cc1S(=O)(=O)Nc1cc(C)on1 | -2.665 | -16.01 | 0.03023 | -6.843
Cc1ccc2c(c1)C(NC(=O)N(C)C)CC21CCN(CC2CC2)CC1.O=C(O)C(F)(F)F (stereo not given) | 0.9585 | - | - | -4.81
OCC1(O)CCN(Cc2noc(-c3ccccc3)n2)CC1 | 16.73 | -20.6 | -8.707 | -1.474
Cc1ncsc1CCC(=O)N1CCCC1c1cccnc1 (stereo not given) | -10.68 | -19.82 | -8.178 | -6.631
CCN1CC[C@@]2(C(=O)Nc3ccccc3)CCN(S(C)(=O)=O)CC[C@@H]12 | - | 11.37 | 7.258 | -
Cc1cc(-c2ccccc2)nc(C2CCCN2S(C)(=O)=O)n1 (stereo not given) | 37.9 | -2.798 | -2.919 | -
Cc1ccc(CNCc2c(C(C)C)nn(C)c2N2CCOCC2)s1 | -1.091 | 2.222 | -2.043 | -17.39
Cc1ccc(C(=O)N2CCC(c3nccn3Cc3ccncc3)CC2)s1 | -6.127 | - | -6.413 | -9.85
O=C(O)C(F)(F)F.O=C(O)C(F)(F)F.[H][C@@]12COC[C@]1(COC)CN(Cc1ccc3ccccc3n1)C2 | 25.32 | - | - | -6.108
COc1ccc(CNC(Cc2cccs2)c2nc(C)c(C)s2)cc1OC (stereo not given) | - | 7.152 | -10.24 | -
C[C@@H]1CN(Cc2ccsc2)C[C@]12CCN(Cc1cccnc1)C2=O | - | -0.4139 | 0.7 | -
O=C(C1CCCO1)N1C[C@@H]2CCN(c3cnccn3)C[C@@H]2C1 (stereo not given in full) | - | -10.1 | -1.558 | -
CCOc1ccc(NC2CCN(C3CC3)C2=O)cn1 (stereo not given) | 3.142 | 6.195 | -4.479 | -19.17
CNC(=O)[C@@H]1[C@@H](c2ccccc2)CN2CCN(Cc3cc(C)no3)C[C@H]12 | - | 40.79 | 4.399 | -
COc1ccc(CNC(Cn2cncn2)c2ccccc2)cc1C (stereo not given) | 17.02 | -17.09 | -4.751 | -22.46
Clc1cnccc1NCc1cccc(COC2CCOCC2)c1 | 6.151 | -21.09 | -9.542 | -58.31
CN(C)C(=O)CN1C(=O)CCC12CCN(Cc1cccn1C)CC2 | - | 12.44 | 13.64 | -
COCCN(Cc1ccoc1)C(=O)c1ccccn1 | 3.901 | -10.26 | -15.91 | -7.634
Cc1csc(C(C)(C)NCc2ncc(-c3ccccc3)o2)n1 | 10.79 | -15.82 | 0.8091 | -14.03
COc1c(CNC2CCc3cc(F)ccc32)c(C)nn1C.Cl (stereo not given) | 46.26 | - | - | 5.745
Cc1ccc(C)c(S(=O)(=O)NCCC(=O)NCc2ccoc2)c1 | 17.65 | -8.626 | 8.291 | -21.14
CCc1nc(C)sc1CN1CC[C@@](O)(C2CC2)[C@H](C)C1 | 5.341 | 21.75 | -12.15 | -26.19
COC(=O)CCCn1ccnc1C(C)c1ccccc1 (stereo not given) | 27.3 | -16.8 | 2.935 | -24.9
NC(=O)C1(Cc2ccc(-c3ccccc3)cc2)CCCNC1 (stereo not given) | -26.81 | 0.3434 | -15.55 | -
CC(C)N(C)Cc1cnc2n1CCN(S(=O)(=O)c1ccccc1)C2.O=C(O)C(F)(F)F | 6.461 | - | - | -15.62
CCn1cc(S(=O)(=O)NC(CO)Cc2c[nH]c3ccccc23)cn1 (stereo not given) | 5.863 | -25.14 | -3.84 | -16.24
COCC1CN(S(=O)(=O)c2ccccc2)Cc2ncnn2C1 (stereo not given) | 4.262 | -24.64 | 3.847 | -11.57
FC(F)(F)c1cccc(C2(CNCc3ccncc3)CCOCC2)c1 | 19.74 | -12.97 | 17.79 | -49.34
[H][C@@]12CCN(C(=O)C(C)(C)C)[C@]1([H])C(=O)N(c1ccc(F)cc1)C(=O)N2 | 6.182 | - | - | -12.88
CC(=O)N1CCN([C@@H]2CCC[C@@H](NC(=O)c3cccnc3)[C@H]2O)CC1 | -6.378 & -8.918 | -7.508 | -5.539 | -14.44
CCCC(=O)Nc1sc(C(=O)OCC)c(C)c1C#N | 7.486 | - | -10.93 | 19.97
O=C(c1ccc[nH]1)N1CCCC2(CCN(c3ccsc3)C2=O)C1 (stereo not given) | 16.94 | -30.32 | -10.37 | 10.58
Cc1nccn1-c1cccc(C2CCCN(C3CCCCC3)C2)n1 (stereo not given) | 42.32 | -55.24 | -5.129 | 14.27
Cc1nc(NS(=O)(=O)c2cc(C)c(Br)cc2C)no1 | 9.255 | -21.57 | -8 | -20.91
Cc1ccc(OCCN(C)C2CCOC2=O)cc1 (stereo not given) | 14.07 | -17.65 | -1.667 | -12.91
COc1ncccc1CN1C[C@@H]2OCCN(CCN(C)C)[C@@H]2C1 | - | -2.208 | 0.6403 | -
COC1COC2(CCN(Cc3ccc4ccccc4n3)CC2)C1.O=C(O)C(F)(F)F.O=C(O)C(F)(F)F (stereo not given) | 4.213 | - | - | -4.26
CCn1cc(-c2nn3c(C(C)C)nnc3s2)c(C)n1 | 24.33 | 0.09745 | -1.366 | -9.577

Repeated from the top, 8 entries:

For COCCN1CCC2(CC1)C(=O)Nc1ccc(C(=O)NC(C)C)cc12 the result was B: -12.63%; C: -8.579%.
For Cc1ccc(C)c2c(O)cc(CN3CCC(=O)NCC3C)nc12 (stereo not given) the result was A: 4.538%; B: -2.659%; C: -5.643%; D: -6.203%.
For Cc1nc(C)n(CC2CCCN2CCOc2ccccc2C#N)n1 (stereo not given) the result was A: 24.52%; B: -6.472%; C: -14.81%.
For Cc1cc(C2CCCN(C(=O)c3cccnc3)C2)ccn1 (stereo not given) the result was A: 10.97%; B: -2.411%; C: 8.461%; D: 3.255%.
For CC(C)c1noc(CNc2ccccc2CC(=O)N(C)C)n1 the result was A: 12.04%; B: -30.15%; C: 4.968%; D: -17.4%.
For CCn1ccnc1CN1CCN(CC(O)Cn2cccn2)CC1 (stereo not given) the result was A: 22.59%; B: -5.955%; C: 5.113%; D: -17.21%.
For Fc1ccccc1Sc1ccccc1CNC1=NCCN1 the result was B: -19.8%; C: 9.121%.
For CCCOC(C)C(=O)N1CCC(O)(c2ccc3nc(C)ccc3c2)CC1 (stereo not given) the result was A: 23.52%; B: -27.94%; C: 0.4408%; D: -18.48%.

Source: ChEMBL document CHEMBL3988442, “University of Dundee, Small-Polar-MMV Screening Library” (2021).